This is one part of the list. Most values lie at the level of the controls, where differences are scatter.
The targets below were run with CN[C@@H]1C[C@H]2O[C@@](C)([C@@H]1OC)n1c3ccccc3c3c4c(c5c6ccccc6n2c5c31)C(=O)NC4 [staurosporine] (assay: log2 fold change of tryptic peptide abundance, ligand vs vehicle (limited proteolysis) (log2 ratio); higher = more trypsin-susceptible (destabilized)). Settings: ligand concentration: 20 uM; sample: K562 cleared lysate; digestion: 4 min, 22 C (HT-PELSA RT4min, Orbitrap Astral).

Amino acid sequences for entries named in this document (tags omitted). A change or cut given only in a name is not applied to a line headed by its entry.
UniProt O15164: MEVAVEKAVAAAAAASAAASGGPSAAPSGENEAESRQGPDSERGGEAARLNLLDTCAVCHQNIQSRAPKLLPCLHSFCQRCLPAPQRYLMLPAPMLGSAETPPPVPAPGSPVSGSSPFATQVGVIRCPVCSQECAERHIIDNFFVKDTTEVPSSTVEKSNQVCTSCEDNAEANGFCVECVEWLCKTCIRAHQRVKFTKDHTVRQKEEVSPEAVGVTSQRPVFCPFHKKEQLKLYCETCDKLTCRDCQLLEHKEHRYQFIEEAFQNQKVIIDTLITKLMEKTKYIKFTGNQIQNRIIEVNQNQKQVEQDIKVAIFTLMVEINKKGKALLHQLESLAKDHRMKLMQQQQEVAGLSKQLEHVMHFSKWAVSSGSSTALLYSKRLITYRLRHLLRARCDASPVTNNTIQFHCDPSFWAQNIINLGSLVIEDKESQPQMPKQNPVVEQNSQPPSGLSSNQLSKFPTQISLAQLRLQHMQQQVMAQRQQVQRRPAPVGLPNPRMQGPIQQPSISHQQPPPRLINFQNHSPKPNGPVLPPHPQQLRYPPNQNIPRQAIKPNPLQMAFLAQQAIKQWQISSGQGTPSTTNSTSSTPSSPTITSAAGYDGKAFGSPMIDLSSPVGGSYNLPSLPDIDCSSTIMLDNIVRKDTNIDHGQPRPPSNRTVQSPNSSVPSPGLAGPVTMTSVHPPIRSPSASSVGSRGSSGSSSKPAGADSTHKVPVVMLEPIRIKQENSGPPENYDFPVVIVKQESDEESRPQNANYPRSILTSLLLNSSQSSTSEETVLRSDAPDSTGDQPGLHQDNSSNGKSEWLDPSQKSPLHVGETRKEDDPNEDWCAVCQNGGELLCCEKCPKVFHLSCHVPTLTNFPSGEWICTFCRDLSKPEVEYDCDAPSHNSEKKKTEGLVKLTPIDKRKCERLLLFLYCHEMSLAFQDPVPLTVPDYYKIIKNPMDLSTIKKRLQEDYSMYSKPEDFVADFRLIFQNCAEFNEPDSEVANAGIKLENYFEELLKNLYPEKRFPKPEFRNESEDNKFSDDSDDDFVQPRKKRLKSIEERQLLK
UniProt O00716: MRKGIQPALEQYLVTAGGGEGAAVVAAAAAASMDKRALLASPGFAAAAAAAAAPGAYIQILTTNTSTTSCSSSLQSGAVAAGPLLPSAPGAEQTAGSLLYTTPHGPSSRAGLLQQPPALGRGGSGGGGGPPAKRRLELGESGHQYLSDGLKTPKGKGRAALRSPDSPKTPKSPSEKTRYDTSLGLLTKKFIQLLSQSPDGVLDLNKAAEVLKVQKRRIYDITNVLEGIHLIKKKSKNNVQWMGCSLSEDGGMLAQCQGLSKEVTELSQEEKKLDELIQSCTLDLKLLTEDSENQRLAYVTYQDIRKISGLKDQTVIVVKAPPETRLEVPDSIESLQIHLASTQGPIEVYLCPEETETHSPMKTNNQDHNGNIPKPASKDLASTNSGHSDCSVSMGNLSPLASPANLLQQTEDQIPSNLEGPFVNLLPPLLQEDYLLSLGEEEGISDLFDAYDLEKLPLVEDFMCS
UniProt O00471: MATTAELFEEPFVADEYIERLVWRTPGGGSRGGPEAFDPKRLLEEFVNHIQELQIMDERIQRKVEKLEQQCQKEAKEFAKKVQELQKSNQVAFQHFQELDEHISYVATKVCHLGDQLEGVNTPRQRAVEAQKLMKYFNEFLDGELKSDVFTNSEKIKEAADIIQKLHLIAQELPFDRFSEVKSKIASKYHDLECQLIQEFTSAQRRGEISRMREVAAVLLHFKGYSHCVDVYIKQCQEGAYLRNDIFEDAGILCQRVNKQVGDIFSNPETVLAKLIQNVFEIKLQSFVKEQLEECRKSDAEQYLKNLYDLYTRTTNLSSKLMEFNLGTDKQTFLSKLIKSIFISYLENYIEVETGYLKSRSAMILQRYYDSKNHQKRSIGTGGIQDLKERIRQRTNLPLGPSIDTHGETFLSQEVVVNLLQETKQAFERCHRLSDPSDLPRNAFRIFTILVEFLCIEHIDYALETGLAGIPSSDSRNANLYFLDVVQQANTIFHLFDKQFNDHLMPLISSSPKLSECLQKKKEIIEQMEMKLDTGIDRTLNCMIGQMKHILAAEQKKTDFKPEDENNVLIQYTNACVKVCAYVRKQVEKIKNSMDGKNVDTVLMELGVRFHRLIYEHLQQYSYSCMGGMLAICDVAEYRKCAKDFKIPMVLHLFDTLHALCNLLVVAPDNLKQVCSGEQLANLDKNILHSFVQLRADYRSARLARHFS
UniProt O00203: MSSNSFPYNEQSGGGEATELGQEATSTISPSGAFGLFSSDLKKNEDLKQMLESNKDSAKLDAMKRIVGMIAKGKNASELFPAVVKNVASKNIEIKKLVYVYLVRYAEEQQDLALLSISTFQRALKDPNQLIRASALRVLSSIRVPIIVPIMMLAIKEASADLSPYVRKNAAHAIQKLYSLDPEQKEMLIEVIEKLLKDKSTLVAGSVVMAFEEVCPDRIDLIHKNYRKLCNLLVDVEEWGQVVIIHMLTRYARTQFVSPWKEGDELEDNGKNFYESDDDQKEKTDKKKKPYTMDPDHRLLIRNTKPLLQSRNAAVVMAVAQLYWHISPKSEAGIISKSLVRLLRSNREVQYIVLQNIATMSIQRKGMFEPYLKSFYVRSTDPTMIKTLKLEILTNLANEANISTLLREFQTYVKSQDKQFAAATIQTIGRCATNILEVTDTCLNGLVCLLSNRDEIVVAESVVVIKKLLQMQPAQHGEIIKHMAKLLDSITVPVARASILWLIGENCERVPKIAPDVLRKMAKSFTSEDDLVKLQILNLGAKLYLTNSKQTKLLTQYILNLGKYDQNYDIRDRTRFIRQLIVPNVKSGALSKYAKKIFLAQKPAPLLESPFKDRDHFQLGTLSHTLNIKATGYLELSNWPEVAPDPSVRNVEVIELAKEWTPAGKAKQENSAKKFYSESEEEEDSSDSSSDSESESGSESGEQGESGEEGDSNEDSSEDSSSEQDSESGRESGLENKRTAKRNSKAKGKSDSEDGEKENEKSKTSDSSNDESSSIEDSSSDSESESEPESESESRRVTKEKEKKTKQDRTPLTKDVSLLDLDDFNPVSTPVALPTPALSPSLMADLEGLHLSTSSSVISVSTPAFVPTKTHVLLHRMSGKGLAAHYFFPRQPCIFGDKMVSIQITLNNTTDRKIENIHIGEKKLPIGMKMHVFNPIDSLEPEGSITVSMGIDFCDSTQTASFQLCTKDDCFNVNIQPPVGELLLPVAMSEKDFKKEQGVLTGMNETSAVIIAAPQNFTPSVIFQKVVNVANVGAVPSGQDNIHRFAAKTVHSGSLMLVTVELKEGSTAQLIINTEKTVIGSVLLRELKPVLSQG
UniProt A8K0S8: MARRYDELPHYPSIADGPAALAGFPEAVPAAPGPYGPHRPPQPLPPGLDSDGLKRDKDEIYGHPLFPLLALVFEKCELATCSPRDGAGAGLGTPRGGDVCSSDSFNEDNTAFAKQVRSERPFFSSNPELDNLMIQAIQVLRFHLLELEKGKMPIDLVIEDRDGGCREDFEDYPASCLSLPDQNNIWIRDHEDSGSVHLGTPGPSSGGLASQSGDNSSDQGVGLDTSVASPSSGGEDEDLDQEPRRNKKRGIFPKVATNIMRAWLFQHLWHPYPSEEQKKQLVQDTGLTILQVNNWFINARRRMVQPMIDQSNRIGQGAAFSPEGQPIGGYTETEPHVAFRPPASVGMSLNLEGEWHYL
UniProt O15305: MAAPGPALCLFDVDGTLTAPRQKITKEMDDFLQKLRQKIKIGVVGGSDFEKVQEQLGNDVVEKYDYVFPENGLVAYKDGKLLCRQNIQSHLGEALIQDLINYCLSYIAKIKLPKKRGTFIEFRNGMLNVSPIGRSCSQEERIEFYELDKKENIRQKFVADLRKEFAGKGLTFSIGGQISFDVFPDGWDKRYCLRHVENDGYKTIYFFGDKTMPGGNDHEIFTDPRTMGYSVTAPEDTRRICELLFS
UniProt O00459, whole entry: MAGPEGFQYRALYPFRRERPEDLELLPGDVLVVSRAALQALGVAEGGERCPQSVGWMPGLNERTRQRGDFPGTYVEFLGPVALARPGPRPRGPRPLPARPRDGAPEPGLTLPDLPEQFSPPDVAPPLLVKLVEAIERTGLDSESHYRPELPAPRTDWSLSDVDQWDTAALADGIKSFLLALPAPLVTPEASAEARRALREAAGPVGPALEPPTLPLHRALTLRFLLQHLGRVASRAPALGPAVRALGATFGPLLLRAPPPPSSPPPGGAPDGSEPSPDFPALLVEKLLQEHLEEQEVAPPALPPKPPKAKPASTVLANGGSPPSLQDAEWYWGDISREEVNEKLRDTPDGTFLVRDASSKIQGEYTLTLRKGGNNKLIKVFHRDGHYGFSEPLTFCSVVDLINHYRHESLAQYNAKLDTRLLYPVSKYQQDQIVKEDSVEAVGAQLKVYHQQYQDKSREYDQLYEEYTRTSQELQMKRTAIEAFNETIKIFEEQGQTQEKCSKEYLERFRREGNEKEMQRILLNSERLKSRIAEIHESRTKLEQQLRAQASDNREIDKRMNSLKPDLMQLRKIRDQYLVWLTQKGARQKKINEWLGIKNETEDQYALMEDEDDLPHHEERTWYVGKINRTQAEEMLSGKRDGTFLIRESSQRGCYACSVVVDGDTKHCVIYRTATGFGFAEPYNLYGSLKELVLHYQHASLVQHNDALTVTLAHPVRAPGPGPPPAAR
UniProt O14832: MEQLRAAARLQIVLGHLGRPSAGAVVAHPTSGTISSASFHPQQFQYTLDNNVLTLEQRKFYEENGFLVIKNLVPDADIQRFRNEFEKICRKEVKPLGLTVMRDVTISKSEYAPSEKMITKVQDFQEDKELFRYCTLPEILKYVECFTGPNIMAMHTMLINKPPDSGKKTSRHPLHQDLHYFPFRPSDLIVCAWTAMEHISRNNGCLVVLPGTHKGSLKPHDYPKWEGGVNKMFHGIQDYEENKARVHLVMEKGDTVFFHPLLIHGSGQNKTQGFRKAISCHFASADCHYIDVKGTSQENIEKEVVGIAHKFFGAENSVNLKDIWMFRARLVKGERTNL
UniProt O14607, whole entry: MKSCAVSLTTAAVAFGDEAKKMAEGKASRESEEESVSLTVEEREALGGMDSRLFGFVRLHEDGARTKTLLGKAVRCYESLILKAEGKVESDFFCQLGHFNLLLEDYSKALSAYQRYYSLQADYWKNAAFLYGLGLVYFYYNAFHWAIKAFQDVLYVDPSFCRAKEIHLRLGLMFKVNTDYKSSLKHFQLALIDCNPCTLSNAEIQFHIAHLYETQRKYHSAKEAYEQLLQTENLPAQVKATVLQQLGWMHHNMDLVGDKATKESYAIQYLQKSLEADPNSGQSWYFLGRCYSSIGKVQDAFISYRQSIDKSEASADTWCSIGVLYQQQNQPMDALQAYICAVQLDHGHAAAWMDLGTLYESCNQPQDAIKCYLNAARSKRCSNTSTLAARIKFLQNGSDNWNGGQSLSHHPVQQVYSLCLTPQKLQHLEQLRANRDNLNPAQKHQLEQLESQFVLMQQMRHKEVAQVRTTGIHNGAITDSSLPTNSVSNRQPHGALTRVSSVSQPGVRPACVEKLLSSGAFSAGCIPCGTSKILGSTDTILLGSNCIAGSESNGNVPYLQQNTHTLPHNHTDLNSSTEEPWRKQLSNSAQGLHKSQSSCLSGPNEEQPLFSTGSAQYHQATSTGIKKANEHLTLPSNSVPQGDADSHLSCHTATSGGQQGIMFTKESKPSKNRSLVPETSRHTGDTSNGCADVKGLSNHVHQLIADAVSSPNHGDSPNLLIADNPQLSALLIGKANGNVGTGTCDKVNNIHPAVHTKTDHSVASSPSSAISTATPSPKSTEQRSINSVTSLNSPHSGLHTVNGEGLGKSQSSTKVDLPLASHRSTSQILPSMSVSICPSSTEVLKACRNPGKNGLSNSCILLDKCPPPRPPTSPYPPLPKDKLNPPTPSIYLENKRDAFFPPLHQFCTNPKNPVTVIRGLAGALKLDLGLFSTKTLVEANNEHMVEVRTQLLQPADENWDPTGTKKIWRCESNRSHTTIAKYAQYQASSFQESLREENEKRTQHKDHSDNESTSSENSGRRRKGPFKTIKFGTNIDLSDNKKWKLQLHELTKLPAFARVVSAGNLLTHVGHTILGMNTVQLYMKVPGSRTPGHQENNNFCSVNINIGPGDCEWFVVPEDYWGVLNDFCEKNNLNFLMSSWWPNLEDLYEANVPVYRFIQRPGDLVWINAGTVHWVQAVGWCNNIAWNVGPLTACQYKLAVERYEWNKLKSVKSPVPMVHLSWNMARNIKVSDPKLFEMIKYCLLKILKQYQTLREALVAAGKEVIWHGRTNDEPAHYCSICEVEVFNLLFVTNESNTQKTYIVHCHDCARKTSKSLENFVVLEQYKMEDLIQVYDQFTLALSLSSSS
UniProt O15318: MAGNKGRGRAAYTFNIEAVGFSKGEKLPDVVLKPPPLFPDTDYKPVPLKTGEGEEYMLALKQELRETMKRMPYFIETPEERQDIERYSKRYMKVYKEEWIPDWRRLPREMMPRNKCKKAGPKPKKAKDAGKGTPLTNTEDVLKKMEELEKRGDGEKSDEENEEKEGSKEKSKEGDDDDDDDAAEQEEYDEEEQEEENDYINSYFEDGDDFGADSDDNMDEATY

Target	log2 fold change
TRIM24 (peptide sequence: ALLHQLESLAK, peptide start residue: 326) (UniProt O15164)	0.221
UniProt O15063 (peptide sequence: AGAMQPQQPSLPVPPPPR, peptide start residue: 684)	0.259
POLRMT (peptide sequence: LHSEPILQDLSR, peptide start residue: 1174) (UniProt O00411)	0.28
HDAC3 (peptide sequence: FHSEDYIDFLQR, peptide start residue: 61) (UniProt O15379)	-0.206
SLC33A1 (peptide sequence: RPGNFSHSLDMK, peptide start residue: 15) (UniProt O00400)	-0.268
E2F3 (peptide sequence: RLELGESGHQYLSDGLK, peptide start residue: 135) (UniProt O00716)	0.48
PPP1R12A (peptide sequence: QNLLHSEK, peptide start residue: 287) (UniProt O14974)	0.43
PDHX (peptide sequence: EHIPGTLR, peptide start residue: 174) (UniProt O00330)	0.167
PSMD11 (peptide sequence: IMLNTPEDVQALVSGK, peptide start residue: 259) (UniProt O00231)	0.181
SYNJ2 (peptide sequence: QHPTYKDDADLVELKR, peptide start residue: 1064) (UniProt O15056)	0.743
TRAFD1 (peptide sequence: QIEALDPPMR, peptide start residue: 171) (UniProt O14545)	-0.103
EXOC5 (peptide sequence: EIIEQMEMK, peptide start residue: 523) (UniProt O00471)	0.472
AP3B1 (peptide sequence: LEILTNLANEANISTLLR, peptide start residue: 390) (UniProt O00203)	-0.605
UniProt A8K0S8 (peptide sequence: GKMPIDLVIEDR, peptide start residue: 66)	0.0498
PMM2 (peptide sequence: TMGYSVTAPEDTRR, peptide start residue: 226) (UniProt O15305)	-0.144
CHD2 (peptide sequence: QKELEEIYMLPR, peptide start residue: 1061) (UniProt O14647)	-0.178
PIK3R2 (peptide sequence: IFEEQGQTQEK, peptide start residue: 490) (UniProt O00459)	-0.429
NVL (peptide sequence: KGNPDSVSNTPEMEQR, peptide start residue: 129) (UniProt O15381)	-0.336

Target	log2 fold change
GTPBP1 (peptide sequence: QTATILSMDKDCLR, peptide start residue: 520) (UniProt O00178)	-0.21
PHYH (peptide sequence: SEYAPSEK, peptide start residue: 109) (UniProt O14832)	0.104
UniProt O14607 (peptide sequence: VNNIHPAVHTK, peptide start residue: 800)	0.904
UniProt B7Z1M9 (peptide sequence: LVSAEGLPR, peptide start residue: 238)	0.153
TRAF5 (peptide sequence: FDLRPLMEAVDTVK, peptide start residue: 340) (UniProt O00463)	0.367
BHLHE40 (peptide sequence: AVVLELTLK, peptide start residue: 94) (UniProt O14503)	-0.247
TAF4 (peptide sequence: DLIFCLENERETSHSLLLYK, peptide start residue: 1062) (UniProt O00268)	0.631
POLR3G (peptide sequence: VYKEEWIPDWR, peptide start residue: 94) (UniProt O15318)	-0.177
ANKRD28 (peptide sequence: GHETSALLILEK, peptide start residue: 901) (UniProt O15084)	-1.01
FCHO1 (peptide sequence: EKPGPLDFEAYSAAALQEAMKR, peptide start residue: 261) (UniProt O14526)	0.14
HMGN4 (peptide sequence: VKDEPQR, peptide start residue: 17) (UniProt O00479)	0.0627
TCERG1 (peptide sequence: AVDSSSMR, peptide start residue: 829) (UniProt O14776)	-0.316
STX16 (peptide sequence: LTDAFLLLR, peptide start residue: 6) (UniProt O14662)	-0.295
KMT2D (peptide sequence: NTLRQEK, peptide start residue: 2698) (UniProt O14686)	-1.29
EIF3F (peptide sequence: NMYELHKK, peptide start residue: 155) (UniProt O00303)	0.28
SOX12 (peptide sequence: WQLLQDSEKIPFVR, peptide start residue: 78) (UniProt O15370)	-0.144
KIAA1324L (peptide sequence: KNQKLEYK, peptide start residue: 952) (UniProt A8MWY0)	-0.424

A different layout for some results above:
Target | log2 fold change
PHYH (peptide sequence: SEYAPSEK, peptide start residue: 109) (UniProt O14832) | 0.104
UniProt O14607 (peptide sequence: VNNIHPAVHTK, peptide start residue: 800) | 0.904

— the supplement of paper PMC12819154, “High-throughput peptide-centric local stability assay extends protein–ligand identification to membrane proteins, tissues and bacteria” (Nature Structural & Molecular Biology, 2025)
